# Measured values taken from article PMC9561960.
# Chains of the proteins cited; added tags and fusions are not shown.
# UniProt P0DTD2: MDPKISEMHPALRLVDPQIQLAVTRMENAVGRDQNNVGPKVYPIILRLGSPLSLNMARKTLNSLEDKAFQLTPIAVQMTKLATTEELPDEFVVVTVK
# UniProt Q07820: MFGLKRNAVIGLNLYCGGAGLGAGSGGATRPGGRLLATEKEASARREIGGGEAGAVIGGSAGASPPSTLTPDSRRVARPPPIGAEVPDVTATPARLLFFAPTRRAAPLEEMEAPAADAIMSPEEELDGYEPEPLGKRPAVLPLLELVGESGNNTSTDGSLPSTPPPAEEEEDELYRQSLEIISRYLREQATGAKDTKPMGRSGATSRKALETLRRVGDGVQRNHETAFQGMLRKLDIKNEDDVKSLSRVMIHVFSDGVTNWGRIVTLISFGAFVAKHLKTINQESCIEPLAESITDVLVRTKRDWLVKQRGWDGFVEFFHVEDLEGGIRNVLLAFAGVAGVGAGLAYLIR
# No constants are given. Whether binding was seen depends on the method and setting. In cells and extracts the contact can be indirect. Some results given as binding are weak or reduced against the parent protein; the word gives no strength.
# Target: SARS-CoV-2 ORF9b containing a Strep-II tag (SARS-CoV-2) (UniProt P0DTD2)
# Test: co-IP
substance,measurement,value
myeloid cell leukemia-1 (MCL1) (from UniProt Q07820 1-350),binding,binds
